# Assay results: publication PMC7819943, “Rice protein-binding microarrays: a tool to detect cis-acting elements near promoter regions in rice”
# Protein sequences, listed by entry. Tags and fused reporters are not part of them.
# UniProt Q0JBA9, entry or part of it: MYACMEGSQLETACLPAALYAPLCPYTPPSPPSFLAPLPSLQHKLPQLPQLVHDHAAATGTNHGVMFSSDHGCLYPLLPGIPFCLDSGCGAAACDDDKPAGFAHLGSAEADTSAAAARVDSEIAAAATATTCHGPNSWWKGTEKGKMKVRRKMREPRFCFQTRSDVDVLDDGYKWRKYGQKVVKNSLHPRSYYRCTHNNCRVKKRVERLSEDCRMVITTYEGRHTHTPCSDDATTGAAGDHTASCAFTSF
# The other results are listed elsewhere or left out.
# Molecular target: OsWRKY34 (Oryza sativa, UniProt Q0JBA9 1-250)
# Experiment: protein-binding microarray (RPBM); PBS, 2% BSA, 51.3 ng/ul salmon testes DNA, 50 uM zinc acetate, 200 nM TF, 25 C, 1 h; high values mean tight binding
# Conditions: protein: recombinant; tags: N-terminal polyhistidine and DsRed monomer fusion (pET32a); label: CyDye5-dUTP incorporated in the synthesized complementary strand; 3' TTTTT single-stranded linker to array surface; dsDNA, one strand shown
# Procedure, shortened: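 Using Ni–NTA, transcription factors fused N-terminally to polyhistidine and DsRed were purified after expression in E. coli BL21-CodonPlus. These were incubated at 200 nM with a blocked, double-stranded custom Agilent array for 1 h at 25 °C in a buffer containing 50 µM zinc acetate, and the array was washed. The binding signal is per-feature fluorescence intensity (arbitrary units) on an Axon 4000B scanner.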
row,Sequence,binding signal
1,CCTTCACCTCTATCTTTCTCTCATTTTCTCCTCTCCCTCTCGGAGTCACCTAGTGCAG,8540 fluorescence intensity (a.u.)
2,GTTATCAGCTTTTCTTTTTTTTTTGAAATTTCAGATTATTCGGAGTCACCTAGTGCAG,8980 fluorescence intensity (a.u.)
3,TTCCGAGTTCACATTCATCATTTCGCTATGCTTATGGACTCGGAGTCACCTAGTGCAG,10900 fluorescence intensity (a.u.)
4,CCACCCCAAGTTACTTTTCTAGTTGTATCTACCCTCTAATCGGAGTCACCTAGTGCAG,9050 fluorescence intensity (a.u.)
5,TCTCTTCTTCTTCTCCAACTTCTTTTTTCTCTTCTTCTTCCGGAGTCACCTAGTGCAG,9680 fluorescence intensity (a.u.)
6,CACCTCCACTGCTACATATCCCACATCACACATCCCCTCTCGGAGTCACCTAGTGCAG,11100 fluorescence intensity (a.u.)
7,GAGGGGAGGGGTTTGGTTTGCTTGGACACTTTGGTTTGGTCGGAGTCACCTAGTGCAG,20100 fluorescence intensity (a.u.)
8,AAGTATCTTGTTTTTCATTGGCTAGGTGAACTTTGTTGCTCGGAGTCACCTAGTGCAG,9170 fluorescence intensity (a.u.)
9,GCAGTTTTTCTTGTCTTTATTCTTATTGATTGCAGAATCACGGAGTCACCTAGTGCAG,9390 fluorescence intensity (a.u.)
10,GACCTGTTGTGTATATCTGAGATCCAGTAACCAATTTTCACGGAGTCACCTAGTGCAG,8360 fluorescence intensity (a.u.)
11,CAGCTCCACCTCACGCGCGCTTCGCCTCGCCGCGCCTCGTCGGAGTCACCTAGTGCAG,8790 fluorescence intensity (a.u.)
12,CTCCGGCCACGGTTGGGTCATTGTCTATGACCCGATCTTCCGGAGTCACCTAGTGCAG,8040 fluorescence intensity (a.u.)
13,TGCTGCAGGTATGTATCATCACGGTGGTCAACGCGGCGAACGGAGTCACCTAGTGCAG,9800 fluorescence intensity (a.u.)
14,CAACTACTCACCATCTTTTTATCAGTCGACCATATATATACGGAGTCACCTAGTGCAG,10500 fluorescence intensity (a.u.)
15,TAGTCTACTCTTTCAACACTCCTTATTTTTAATTCTGAATCGGAGTCACCTAGTGCAG,8150 fluorescence intensity (a.u.)
16,AATCCATTTTTGCTTCCTCTGTTTTGTAATAATCAGTTGTCGGAGTCACCTAGTGCAG,10500 fluorescence intensity (a.u.)
17,CGCCGAGTGACCTCGTTTGCACCGGTTTTGATAGTTCAGACGGAGTCACCTAGTGCAG,8080 fluorescence intensity (a.u.)
18,GGTTGCATAGAGCGATGTTTTTTTAATATAGTTTATACCTCGGAGTCACCTAGTGCAG,8240 fluorescence intensity (a.u.)
19,GAAGTTTGGGTGGGCCGGGCTCATTCATCATCAGCCCATCCGGAGTCACCTAGTGCAG,8170 fluorescence intensity (a.u.)
20,GCCATTATATCTGCAGTTCTTTTCTGTGCTAAAATTTTAGCGGAGTCACCTAGTGCAG,17100 fluorescence intensity (a.u.)
21,CCACTATGGAATTAAACCCTATCATGTGACACATTTGTTACGGAGTCACCTAGTGCAG,8240 fluorescence intensity (a.u.)

row,Sequence,binding signal
1,CTGGGTGTTCAGATATATTACTAGAGGTCATACCATACAACGGAGTCACCTAGTGCAG,8130 fluorescence intensity (a.u.)
2,AGGTAGTTTCCGTTCGTTTTCATACCGTTTTCATCCCTAGCGGAGTCACCTAGTGCAG,9960 fluorescence intensity (a.u.)
3,TCATCATCCCTACGCCTCGTCGTGCCCGTGTGTGCTATGCCGGAGTCACCTAGTGCAG,8640 fluorescence intensity (a.u.)
4,CGTCGCCGCCTCGTCGTCCTCGCTGGCACACCTTCGCCGTCGGAGTCACCTAGTGCAG,8530 fluorescence intensity (a.u.)
5,ATTAAAAGATCTTCTCTCGATCGGTTCTCGCCATTCATCCCGGAGTCACCTAGTGCAG,10500 fluorescence intensity (a.u.)
6,CCTGCCACCGTGCCACCGCCTCTCCGTCCCCATCACCCTCCGGAGTCACCTAGTGCAG,8750 fluorescence intensity (a.u.)
7,CTTCTCGAGTTCATGGCTTCCTTCTTCGGCCGCCGACTCACGGAGTCACCTAGTGCAG,8450 fluorescence intensity (a.u.)
8,CCTCCTCTACACCTTGTCTCCGCCTCGCGGGAGACCACACCGGAGTCACCTAGTGCAG,8590 fluorescence intensity (a.u.)
9,TGTATTTGTCGGCTTGCATCGTCACGGTCTCTGTCACCTCCGGAGTCACCTAGTGCAG,10700 fluorescence intensity (a.u.)
10,GGGAGATCTGGTTATTAGTAGTGCATTGTGTATTCTTTTCCGGAGTCACCTAGTGCAG,16300 fluorescence intensity (a.u.)
11,ATTTCCAGCATGTACTTGCATTATCCATTTTTTCTTTACCCGGAGTCACCTAGTGCAG,11000 fluorescence intensity (a.u.)
12,TCCATCTCTTTCTCGTGCATGCACATGATCCGAGGCACAGCGGAGTCACCTAGTGCAG,8430 fluorescence intensity (a.u.)
13,CCCTTGTTTAGTTCGTGAAAAAAAATTTTTGGGTGTCACACGGAGTCACCTAGTGCAG,9040 fluorescence intensity (a.u.)
14,ACCCTGGTTTCCATGCCCAACGTTTGACCTTCCGTCTTATCGGAGTCACCTAGTGCAG,11200 fluorescence intensity (a.u.)
15,AGTCTTTGGGAGCTAGTGTTGAGTTGTACATTTGGGGATACGGAGTCACCTAGTGCAG,10900 fluorescence intensity (a.u.)
16,GATACGATGACAGACACGCCGCTGGCCGCTTGACCTCGCCCGGAGTCACCTAGTGCAG,8520 fluorescence intensity (a.u.)
17,CGATTGACCCCTTTACCACATTACACTGTTCTGTACAGTTCGGAGTCACCTAGTGCAG,10800 fluorescence intensity (a.u.)
18,AAGCTTTCTCAACCGTTTATATCCCGAGTTTTGTTCGCTCCGGAGTCACCTAGTGCAG,9610 fluorescence intensity (a.u.)
19,TCCGCGCCGTCACCTCACCTCCCGTCGTCGTCTCCTATTCCGGAGTCACCTAGTGCAG,12800 fluorescence intensity (a.u.)
20,AAATGGGGTGAGATGAATGGATGGCTAAAATTGAAACTTACGGAGTCACCTAGTGCAG,8060 fluorescence intensity (a.u.)
21,GTCCGCTCGCGCCAGCTCATGCATGTTCTCTCTCTTTAGCCGGAGTCACCTAGTGCAG,13100 fluorescence intensity (a.u.)

# As a short view, some entries already given:
row,Sequence,binding signal
11,CAGCTCCACCTCACGCGCGCTTCGCCTCGCCGCGCCTCGTCGGAGTCACCTAGTGCAG,8790 fluorescence intensity (a.u.)
12,CTCCGGCCACGGTTGGGTCATTGTCTATGACCCGATCTTCCGGAGTCACCTAGTGCAG,8040 fluorescence intensity (a.u.)
